Test results published in patent US8188070B2, “Method of treating neurological diseases and disorders” (The Trustees of the University of Pennsylvania, priority 2002, dated 2012).

Tested on: S5 cells
Experiment: High throughput screen: ATP level (viable cells) in S5 cells with reduced SMN
Format: cell-based, chicken
Settings: Gallus gallus, read-out: EC50 (effective concentration for half maximum activity)
Procedure: In the SMN conditional knockout cell line, S5, the endogenous smn gene is disrupted by homologous recombination, and the SMN protein is stably expressed from an SMN cDNA under the control of a tetracycline (tet)-repressible promoter (Wang and Dreyfuss (2001) supra).
Libraries of compounds were screened against the S5 cell line. […] The cells were incubated for an additional 72 hours and the number of viable cells in each well was determined by measuring the ATP level in the cell lysate, a sensitive assay commonly used to assess cell viability in HTS (Crouch, et al. (1993) J. Immunol. Methods 160:81-88). […] Activity of the compounds was measured as the difference between the sample and the average of the controls.
The activities of all compounds were further examined at concentrations ranging from 0.5 to 20 μM. […] The activity of each compound was determined as a percentage increase of the ATP level, reflecting the number of viable cells, relative to cells treated with an equal volume of DMSO only. […]
After being incubated in medium containing 18 ng/ml tet for 24 hours, S5 cells were dispensed into 96-well plates at 120 μl per well. […] Luminescence was read on a Wallac Victor2 multi-channel plate reader (Perkin-Elmer, Boston, Mass.). […] Data from luminescence readings were analyzed with MICROSOFT® Excel.

O=C(CCCN1CCC2(CC1)C(=O)NCN2c1ccccc1)c1ccc(F)cc1 [Compound 29]
EC50: 4 µM
